In the supplement of paper PMC12819154, “High-throughput peptide-centric local stability assay extends protein–ligand identification to membrane proteins, tissues and bacteria” (Nature Structural & Molecular Biology, 2025):
The other results are listed elsewhere or left out. Most entries show no effect beyond the scatter of the controls.

Protein sequences, listed by entry. Tags and fused reporters are not part of them. Lines headed by an entry give the natural chain unless they say otherwise; changes in a name come on top.
UniProt Q9DC22: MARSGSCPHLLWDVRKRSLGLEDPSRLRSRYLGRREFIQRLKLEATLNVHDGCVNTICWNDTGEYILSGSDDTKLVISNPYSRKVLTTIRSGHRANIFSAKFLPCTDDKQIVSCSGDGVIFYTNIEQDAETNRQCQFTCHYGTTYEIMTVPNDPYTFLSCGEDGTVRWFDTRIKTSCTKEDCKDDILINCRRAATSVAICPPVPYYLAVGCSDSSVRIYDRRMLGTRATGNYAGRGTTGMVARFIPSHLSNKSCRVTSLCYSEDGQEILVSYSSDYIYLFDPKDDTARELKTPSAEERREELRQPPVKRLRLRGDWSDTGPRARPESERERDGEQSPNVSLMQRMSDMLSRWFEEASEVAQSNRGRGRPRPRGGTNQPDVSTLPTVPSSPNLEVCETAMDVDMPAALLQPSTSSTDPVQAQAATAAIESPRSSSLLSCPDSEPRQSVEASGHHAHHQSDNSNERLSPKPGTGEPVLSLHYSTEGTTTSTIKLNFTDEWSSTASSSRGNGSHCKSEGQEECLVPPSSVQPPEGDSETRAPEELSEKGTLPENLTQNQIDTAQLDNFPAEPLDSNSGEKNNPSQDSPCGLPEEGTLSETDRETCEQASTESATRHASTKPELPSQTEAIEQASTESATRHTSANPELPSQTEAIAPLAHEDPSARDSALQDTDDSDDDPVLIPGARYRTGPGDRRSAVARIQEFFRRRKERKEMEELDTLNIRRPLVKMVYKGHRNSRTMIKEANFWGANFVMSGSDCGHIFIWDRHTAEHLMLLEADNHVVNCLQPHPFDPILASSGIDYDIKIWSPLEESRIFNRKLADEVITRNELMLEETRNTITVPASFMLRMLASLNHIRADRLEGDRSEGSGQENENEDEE
UniProt Q9ER74: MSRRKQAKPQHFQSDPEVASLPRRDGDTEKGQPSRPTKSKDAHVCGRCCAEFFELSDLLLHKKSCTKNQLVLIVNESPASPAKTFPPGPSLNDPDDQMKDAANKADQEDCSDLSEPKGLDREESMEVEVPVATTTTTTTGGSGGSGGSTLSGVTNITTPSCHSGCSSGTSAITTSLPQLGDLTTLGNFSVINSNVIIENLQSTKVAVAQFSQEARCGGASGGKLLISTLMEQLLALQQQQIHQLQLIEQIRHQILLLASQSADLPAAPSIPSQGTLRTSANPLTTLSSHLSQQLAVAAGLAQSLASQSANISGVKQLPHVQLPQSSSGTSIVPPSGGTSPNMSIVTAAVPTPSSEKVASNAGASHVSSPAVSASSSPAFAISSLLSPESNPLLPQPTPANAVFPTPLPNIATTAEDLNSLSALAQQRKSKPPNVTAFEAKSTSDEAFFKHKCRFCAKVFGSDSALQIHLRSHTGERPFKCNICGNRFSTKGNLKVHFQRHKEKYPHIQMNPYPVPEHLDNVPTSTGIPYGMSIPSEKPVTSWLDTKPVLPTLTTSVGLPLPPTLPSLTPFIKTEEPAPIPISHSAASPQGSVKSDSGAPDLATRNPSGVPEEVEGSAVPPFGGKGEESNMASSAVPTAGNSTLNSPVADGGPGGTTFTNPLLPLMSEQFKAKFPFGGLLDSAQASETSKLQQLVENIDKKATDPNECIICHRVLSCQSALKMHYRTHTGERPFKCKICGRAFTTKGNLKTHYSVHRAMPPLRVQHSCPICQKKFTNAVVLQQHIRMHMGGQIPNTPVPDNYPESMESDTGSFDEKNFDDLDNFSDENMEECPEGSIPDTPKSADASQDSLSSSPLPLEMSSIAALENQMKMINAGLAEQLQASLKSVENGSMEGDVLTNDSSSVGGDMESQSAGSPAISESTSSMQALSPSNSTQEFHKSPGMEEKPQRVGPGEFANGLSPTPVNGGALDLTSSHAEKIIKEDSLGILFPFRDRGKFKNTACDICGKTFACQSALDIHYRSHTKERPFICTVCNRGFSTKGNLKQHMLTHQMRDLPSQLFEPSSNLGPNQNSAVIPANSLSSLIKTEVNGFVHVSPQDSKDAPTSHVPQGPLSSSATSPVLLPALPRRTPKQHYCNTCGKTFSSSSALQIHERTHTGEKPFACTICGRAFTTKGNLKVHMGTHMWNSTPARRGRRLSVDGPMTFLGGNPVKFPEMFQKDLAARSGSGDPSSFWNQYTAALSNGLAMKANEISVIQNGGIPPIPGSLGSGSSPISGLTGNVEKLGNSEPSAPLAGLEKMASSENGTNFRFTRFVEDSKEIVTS
UniProt Q9EP72: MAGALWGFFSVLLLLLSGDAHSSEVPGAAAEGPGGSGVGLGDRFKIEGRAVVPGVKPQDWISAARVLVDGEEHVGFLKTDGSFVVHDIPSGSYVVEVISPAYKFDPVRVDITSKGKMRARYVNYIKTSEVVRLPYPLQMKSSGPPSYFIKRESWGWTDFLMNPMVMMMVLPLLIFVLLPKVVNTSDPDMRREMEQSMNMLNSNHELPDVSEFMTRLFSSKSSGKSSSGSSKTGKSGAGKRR
UniProt Q9DC40, whole entry: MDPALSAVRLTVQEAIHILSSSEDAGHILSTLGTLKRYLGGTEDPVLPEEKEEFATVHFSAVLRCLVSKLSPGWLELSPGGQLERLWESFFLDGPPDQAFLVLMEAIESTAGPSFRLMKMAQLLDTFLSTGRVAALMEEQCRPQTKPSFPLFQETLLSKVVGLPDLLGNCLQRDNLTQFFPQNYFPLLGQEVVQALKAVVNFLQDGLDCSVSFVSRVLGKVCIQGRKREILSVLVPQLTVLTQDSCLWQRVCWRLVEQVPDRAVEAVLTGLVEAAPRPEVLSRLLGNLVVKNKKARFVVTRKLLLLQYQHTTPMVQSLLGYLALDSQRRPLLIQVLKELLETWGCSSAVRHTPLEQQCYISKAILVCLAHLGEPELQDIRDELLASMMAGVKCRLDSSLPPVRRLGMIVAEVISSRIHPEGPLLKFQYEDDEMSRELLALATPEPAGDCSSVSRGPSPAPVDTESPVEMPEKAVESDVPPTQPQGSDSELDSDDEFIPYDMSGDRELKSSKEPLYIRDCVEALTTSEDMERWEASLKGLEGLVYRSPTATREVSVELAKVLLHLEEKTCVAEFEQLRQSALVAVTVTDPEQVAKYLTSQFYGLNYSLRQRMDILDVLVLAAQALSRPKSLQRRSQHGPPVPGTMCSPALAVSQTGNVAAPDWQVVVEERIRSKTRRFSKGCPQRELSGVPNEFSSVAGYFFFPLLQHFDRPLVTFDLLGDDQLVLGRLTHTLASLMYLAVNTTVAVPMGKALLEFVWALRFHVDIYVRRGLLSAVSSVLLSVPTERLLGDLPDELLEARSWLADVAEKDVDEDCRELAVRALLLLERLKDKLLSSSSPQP
UniProt Q9DCJ7: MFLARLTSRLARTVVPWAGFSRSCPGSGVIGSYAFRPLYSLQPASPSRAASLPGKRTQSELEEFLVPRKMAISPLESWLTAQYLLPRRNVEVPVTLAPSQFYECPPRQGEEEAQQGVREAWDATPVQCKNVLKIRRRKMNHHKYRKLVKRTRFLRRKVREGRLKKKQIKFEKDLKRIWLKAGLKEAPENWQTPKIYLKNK
UniProt Q9DBD5: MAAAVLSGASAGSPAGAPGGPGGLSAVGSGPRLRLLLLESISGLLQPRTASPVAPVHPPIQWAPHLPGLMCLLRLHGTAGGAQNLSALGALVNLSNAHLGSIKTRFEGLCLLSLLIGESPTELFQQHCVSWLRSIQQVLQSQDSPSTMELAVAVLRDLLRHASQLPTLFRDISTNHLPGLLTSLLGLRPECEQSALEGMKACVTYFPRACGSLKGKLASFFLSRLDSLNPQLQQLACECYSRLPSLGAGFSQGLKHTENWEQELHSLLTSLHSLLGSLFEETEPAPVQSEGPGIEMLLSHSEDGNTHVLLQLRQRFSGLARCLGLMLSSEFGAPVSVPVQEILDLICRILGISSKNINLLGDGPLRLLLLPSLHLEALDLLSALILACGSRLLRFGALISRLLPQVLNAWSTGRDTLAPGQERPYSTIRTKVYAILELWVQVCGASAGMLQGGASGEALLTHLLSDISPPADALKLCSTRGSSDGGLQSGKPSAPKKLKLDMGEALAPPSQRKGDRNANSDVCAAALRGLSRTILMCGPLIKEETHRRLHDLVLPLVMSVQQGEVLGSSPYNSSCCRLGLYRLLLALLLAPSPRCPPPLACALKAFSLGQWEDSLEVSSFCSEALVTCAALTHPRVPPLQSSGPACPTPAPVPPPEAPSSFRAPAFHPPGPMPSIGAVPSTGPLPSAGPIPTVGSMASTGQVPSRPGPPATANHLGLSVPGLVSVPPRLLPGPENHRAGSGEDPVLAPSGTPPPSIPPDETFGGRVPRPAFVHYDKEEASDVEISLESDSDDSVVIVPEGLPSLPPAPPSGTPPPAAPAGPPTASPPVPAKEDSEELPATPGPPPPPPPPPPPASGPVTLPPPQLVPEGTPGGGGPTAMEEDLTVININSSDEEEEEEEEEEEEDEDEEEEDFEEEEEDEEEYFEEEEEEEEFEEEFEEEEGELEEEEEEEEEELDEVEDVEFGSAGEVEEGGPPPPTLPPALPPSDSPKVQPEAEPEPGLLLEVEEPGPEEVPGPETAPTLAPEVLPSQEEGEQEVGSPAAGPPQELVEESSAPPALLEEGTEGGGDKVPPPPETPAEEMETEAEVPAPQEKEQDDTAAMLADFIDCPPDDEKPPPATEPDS
UniProt Q9DBU3: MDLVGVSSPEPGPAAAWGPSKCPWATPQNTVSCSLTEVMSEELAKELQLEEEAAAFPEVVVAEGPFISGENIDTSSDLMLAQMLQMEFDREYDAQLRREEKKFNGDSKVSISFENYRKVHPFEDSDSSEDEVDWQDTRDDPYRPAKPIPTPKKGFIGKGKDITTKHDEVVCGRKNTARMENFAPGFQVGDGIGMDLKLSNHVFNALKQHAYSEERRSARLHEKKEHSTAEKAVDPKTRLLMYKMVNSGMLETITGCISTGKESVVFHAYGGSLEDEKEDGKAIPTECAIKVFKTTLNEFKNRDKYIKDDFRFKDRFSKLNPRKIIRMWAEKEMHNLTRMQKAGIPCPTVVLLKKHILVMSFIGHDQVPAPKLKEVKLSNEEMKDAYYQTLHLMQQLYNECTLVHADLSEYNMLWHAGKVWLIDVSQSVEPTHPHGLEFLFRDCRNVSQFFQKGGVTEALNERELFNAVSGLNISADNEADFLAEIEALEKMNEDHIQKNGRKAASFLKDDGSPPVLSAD
UniProt Q9DBA6: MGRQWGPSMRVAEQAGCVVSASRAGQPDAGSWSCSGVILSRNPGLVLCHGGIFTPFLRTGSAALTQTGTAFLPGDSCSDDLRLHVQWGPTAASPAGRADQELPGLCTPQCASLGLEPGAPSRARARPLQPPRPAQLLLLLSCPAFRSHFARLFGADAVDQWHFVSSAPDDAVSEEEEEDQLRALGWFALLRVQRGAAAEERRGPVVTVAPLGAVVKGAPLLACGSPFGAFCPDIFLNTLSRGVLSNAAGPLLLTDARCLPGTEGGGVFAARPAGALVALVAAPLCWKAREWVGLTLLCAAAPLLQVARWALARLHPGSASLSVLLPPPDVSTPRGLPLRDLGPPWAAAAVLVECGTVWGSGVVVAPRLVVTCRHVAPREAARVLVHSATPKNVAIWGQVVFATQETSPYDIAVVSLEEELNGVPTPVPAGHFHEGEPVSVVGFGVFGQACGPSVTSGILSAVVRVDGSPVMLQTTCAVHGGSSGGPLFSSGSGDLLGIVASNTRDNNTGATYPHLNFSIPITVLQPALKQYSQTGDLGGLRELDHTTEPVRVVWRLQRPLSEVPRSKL
UniProt Q9DD06: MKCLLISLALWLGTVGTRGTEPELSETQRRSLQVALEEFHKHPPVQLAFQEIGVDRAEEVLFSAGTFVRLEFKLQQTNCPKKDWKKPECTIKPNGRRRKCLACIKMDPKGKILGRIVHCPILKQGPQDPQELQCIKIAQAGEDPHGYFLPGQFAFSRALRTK

Compound: CN[C@@H]1C[C@H]2O[C@@](C)([C@@H]1OC)n1c3ccccc3c3c4c(c5c6ccccc6n2c5c31)C(=O)NC4 [staurosporine]
Experiment: log2 fold change of tryptic peptide abundance, ligand vs vehicle (limited proteolysis) (log2 ratio); higher = more trypsin-susceptible (destabilized)
Conditions: ligand concentration: 20 uM; sample: mouse liver crude lysate; replicate design: treated separately

Target | log2 fold change
UniProt Q9DC22 (peptide sequence: LADEVITR, peptide start residue: 817) | -0.4
UniProt Q9ER74 (peptide sequence: VAVAQFSQEAR, peptide start residue: 205) | -0.179
UniProt Q9EP72 (peptide sequence: VLVDGEEHVGFLK, peptide start residue: 66) | -0.171
UniProt Q9DC40 (peptide sequence: EVSVELAK, peptide start residue: 552) | -0.386
UniProt Q9DCJ7 (peptide sequence: EAPENWQTPK, peptide start residue: 185) | 0.114
UniProt Q9DBD5 (peptide sequence: LLPGPENHR, peptide start residue: 729) | 0.099
UniProt Q9DBU3 (peptide sequence: EYDAQLR, peptide start residue: 91) | 0.208
UniProt Q9DBA6 (peptide sequence: LHVQWGPTAASPAGR, peptide start residue: 83) | -0.25
UniProt Q9DD06 (peptide sequence: KPECTIKPNGR, peptide start residue: 86) | -0.114

Quoted at random: two entries already listed.
Target | log2 fold change
UniProt Q9DBU3 (peptide sequence: EYDAQLR, peptide start residue: 91) | 0.208
UniProt Q9DC22 (peptide sequence: LADEVITR, peptide start residue: 817) | -0.4
